# Results of single-concentration screens

Source: ChEMBL document CHEMBL3988442, “University of Dundee, Small-Polar-MMV Screening Library” (2021).

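Whole-parasite assay of Trypanosoma brucei over 72 hours; the read-out is not stated. Tested at 30 µM. Higher reads as stronger inhibition (inferred: compounds with an IC50 in retests scored well above the rest). Values scatter widely below zero; nearly all retest evidence comes from the higher of the two concentrations used. About 64,000 compounds were tested under these conditions; 1.5% (about 940) showed 50% or more at least once.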

Values are the deposited “Percent Effect”, in %. The controls that fix the scale are not given in the record; negative values are as filed. Compounds were drawn at random from those tested, without regard to their results.

Compound	percent effect
CCN1CCN(c2ccc(CNC(=O)c3sccc3C)cn2)CC1	8.581
O=C(O)[C@@H]1CN(C(=O)CCC(F)(F)F)C[C@H]1c1ccncc1	-18.74
O=C(Nc1cnc(N2CCOCC2)nc1)c1ccc(C(F)(F)F)cc1	-22.57
CCN1CC2(CC1=O)CN(C(=O)c1cccs1)CCN(C(=O)N(C)C)C2 (centres unmarked)	0.5839
O=C(Cc1cccc(F)c1)NC1CCCc2cn[nH]c21 (centres unmarked)	-18.29
CCCC(=O)NCC(=O)NC1CC(C)(C)Cc2oc(C)cc21 (centres unmarked)	-38.5
CC(=O)N1CCCN(C(=O)NC(C)c2ccc(C)o2)CC1 (centres unmarked)	-9.856
CNc1cc(C2CCCN(S(=O)(=O)c3cn[nH]c3)C2)ccn1 (centres unmarked)	-0.8549
c1cnn(CCC2CCCCN2Cc2cnc(C3CCCCC3)nc2)c1 (centres unmarked)	17.28
O=C(CNC(=O)Nc1c(F)cc(F)cc1-c1ccccc1)NC1CC1	-21.85
Cc1cncc(C2CCCN(C(=O)c3c[nH]c(=O)[nH]c3=O)C2)n1 (centres unmarked)	-19
NC(=O)C1CCN(C(=O)c2ccc(Cn3cc(Br)cn3)cc2)CC1	-12.5
N#CCCCS(=O)(=O)N1CCCC1CC(=O)c1cccs1 (centres unmarked)	-6.576
CC1CCc2n[nH]c(C(=O)NCCCc3ccccn3)c2C1 (centres unmarked)	-5.253
CN(Cc1ccco1)Cc1cncc2c1CCN(Cc1ccoc1)C2.Cl.Cl.Cl	-60.97
NC(=O)N1CCCN(Cc2cc(F)cc(Br)c2)CC1	-40.09
Cc1cn2nc(Sc3nnnn3C)sc2n1	-12.73
Cc1ccc(-c2cc(CN(CC(N)=O)CC(C)C)on2)cc1	-38.93
O=c1oc(-c2ccccc2)nn1CN1CCC(N2CCCCC2)CC1	-39.71
Cc1nn(C)c(C)c1C1CCCN1Cc1cccc(C(=O)N(C)C)c1 (centres unmarked)	-6.963
CCNC(=O)NCc1cnn(-c2ccc(F)cc2F)c1	-27.34
CN(C)C(=O)c1cc(NC(=O)N2CCCC(C(F)(F)F)C2)ccn1 (centres unmarked)	-6.142
Cc1cc(C)cc(OCC(=O)N2CCCN(CC(N)=O)CC2)c1	-40.79
Cc1csc(CCNC(=O)N2CCC(NC(=O)OC(C)(C)C)CC2)n1	-10.7
CC(SCC(=O)NCCC#N)c1ccc(Cl)cc1 (centres unmarked)	16.21
O=C(O)C(F)(F)F.O=C(O)C(F)(F)F.[H][C@@]12CN(Cc3ccccn3)C[C@]1([H])CN(S(=O)(=O)c1cn(C)cn1)C2	-38.02
COCC(=O)N1CCc2nc(-c3cnccn3)nc(O)c2C1	4.437
Cc1cc(C)n(CC2CCCN2C(=O)CCNc2ncccn2)n1 (centres unmarked)	0.4563
COC(=O)c1cnc(C(=O)N(c2ccc(OC)c(F)c2)C(C)C)cn1	-44.58
CC(C)c1ncc(Cl)c(C(=O)N2CCN3CCCCC3C2)n1 (centres unmarked)	-19.42
Cc1n[nH]c(C2CN(C(=O)COCC(F)(F)F)CCO2)n1 (centres unmarked)	-27.26
O=C(NC[C@H]1Cn2c(-c3ccccc3)cnc2CO1)C1CCOCC1	-4.385
O=C(CCNC(=O)N1CCC(c2ccccc2)C1)N1CCCCC1 (centres unmarked)	-22.77
COc1ncccc1C(=O)N(C)Cc1nc(-c2ccccn2)no1	-113.4
CCc1cnc(NCc2ccccc2Cn2cccn2)nc1	-10.82
Cc1ccc(NC(=O)c2ccc(=O)n(CC(=O)Nc3nccs3)n2)cc1	-11.93
CC(O)CN1CCN(C(=O)c2cc3ccccc3c(=O)[nH]2)CC1 (centres unmarked)	6.155
C1=C(CNC2CCc3ncnn3C2)COc2ccccc21 (centres unmarked)	-58.63
O=C(CCNCc1cccc2c1OCCCO2)NC1CCCC1	-49.15
Cc1noc(C)c1CCCNC(=O)Nc1cccc([S+](C)[O-])c1 (centres unmarked)	-32.35
CNC(=O)C1Cn2ccnc2C2(CCN(Cc3cccs3)CC2)O1.O=C(O)C(F)(F)F.O=C(O)C(F)(F)F (centres unmarked)	-249.3
COCc1ncc(CN2CC[C@@](C)(O)[C@@H](Cc3ccccc3)C2)cn1	-12.38
CSCCC(NC(N)=O)C(=O)NCc1c(C)nn(-c2ccccc2)c1C (centres unmarked)	-20.96
O=C(c1cc(C2CC2)[nH]n1)N1CCN(Cc2ccc3c(c2)OCO3)CC1	-8.329
CCCNC(=O)NC(=O)CNC(C)(C)c1ccc2c(c1)OCCO2	6.073
O=S(=O)(c1ccc(F)cc1)N1CCCC1c1cc[nH]n1 (centres unmarked)	-7.354

5 of the entries, repeated:

{"compound": "O=c1oc(-c2ccccc2)nn1CN1CCC(N2CCCCC2)CC1", "percent effect": -39.71}
{"compound": "Cc1noc(C)c1CCCNC(=O)Nc1cccc([S+](C)[O-])c1", "stereo": "centres unmarked", "percent effect": -32.35}
{"compound": "CN(Cc1ccco1)Cc1cncc2c1CCN(Cc1ccoc1)C2.Cl.Cl.Cl", "percent effect": -60.97}
{"compound": "CN(C)C(=O)c1cc(NC(=O)N2CCCC(C(F)(F)F)C2)ccn1", "stereo": "centres unmarked", "percent effect": -6.142}
{"compound": "O=C(CCNC(=O)N1CCC(c2ccccc2)C1)N1CCCCC1", "stereo": "centres unmarked", "percent effect": -22.77}